The exact form of at least one protein or probe is not confirmed.

This data set concerns Sse1825I restriction endonuclease (Streptomyces sp. AH1825 (FERM BP-4836)). The data set can be described thus: enzyme reaction in vitro. The following applies: specific cleavage at heptanucleotide recognition sequence; optimum about 37 C, pH 7.0-9.0; cut position given only in formula image; purified native protein.

For “AATTCCTCGAGAAGGGACCCAACCATGGA (double strand) [Sse1825I cutting-site duplex (inserted in pUC118/pUC119)]”, the “activity on this sequence” value was “active”.

The values above are taken from patent US5496717.
